Measured values reported in paper PMC8129077.
No constants are given. Whether binding was seen depends on the method and setting. Binding seen in cells or lysates may run through a third protein. Some entries that bind do so weakly or less than the wild type.

Sequences of proteins named here, by UniProt entry; tags and fusion partners are left off.
UniProt P37238: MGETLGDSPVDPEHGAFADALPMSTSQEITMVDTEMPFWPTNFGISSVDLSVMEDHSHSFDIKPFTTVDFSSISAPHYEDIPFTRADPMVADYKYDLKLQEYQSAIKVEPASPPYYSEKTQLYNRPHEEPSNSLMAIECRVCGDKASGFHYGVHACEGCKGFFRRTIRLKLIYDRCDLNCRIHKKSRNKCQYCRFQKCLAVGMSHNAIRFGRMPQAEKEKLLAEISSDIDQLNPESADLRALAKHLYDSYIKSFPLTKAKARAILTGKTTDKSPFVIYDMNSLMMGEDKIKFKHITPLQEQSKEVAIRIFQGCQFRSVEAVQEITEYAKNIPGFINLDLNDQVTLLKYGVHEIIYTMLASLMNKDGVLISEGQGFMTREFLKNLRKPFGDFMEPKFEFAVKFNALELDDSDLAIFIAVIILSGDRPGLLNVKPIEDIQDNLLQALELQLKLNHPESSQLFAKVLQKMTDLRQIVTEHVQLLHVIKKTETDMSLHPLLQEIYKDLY

Molecular target: p62 (encoded by Sqstm1), endogenous (mouse (endogenous in brown adipocytes)) (UniProt Q64337)
Assay: co-IP; endogenous proteins; nuclear lysates (3–4 mg) of brown adipocytes treated with ISO and rosiglitazone; IP with anti-p62 or anti-PPARγ and protein G agarose, overnight at 4 °C; washed with BC300 buffer (50 mM Tris-HCl pH 7.9, 300 mM KCl, 2 mM EDTA, 10% glycerol, 0.1% NP-40)

peroxisome proliferator-activated receptor γ (PPARγ), endogenous (from UniProt P37238 1-505)
binding: binds
